PubChem BioAssay AID1259307 – Sanger Institute | 2017

- Assay: 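Screen of kinase gene silencing for colorectal cancer cell killing and drug cooperation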 (primary screen)
- System: SW620 colorectal cancer cells
- Reagent: siRNA pool against human genes
- Challenge: anchor drugs BYL719 at 1 µM, cetuximab at 5 µg/ml or trametinib at 10 nM, each beside a DMSO vehicle arm
- Detection: 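Per-well viability versus non-targeting control pool, replicate-averaged, robust z-score from controls; synergy scores for BYL719 1 µM, cetuximab 5 µg/ml, trametinib 10 nM against DMSO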
- Reading the numbers: viability robust z-score, no drug: higher = more viable cells
- Call rule: 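Essential when the viability robust z-score without drug is under -3; synergy scores are ignored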
- Calls: active = essential (lethal alone); inactive = no change alone
This is one part, drawn at random, of 794 reagents. Of all reagents, 15 (1.9%) are marked active. 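Calls reflect lethality without any drug; synergy scores did not enter the calls.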 The numbers tell different reagents against one gene apart. Further read-outs or replicates are left out here. Not stated in the record: the amount of reagent, the time to read-out.

{"gene knocked down":"MAP2K1 (GeneID 5604)","reagent no.":1,"viability robust z-score, no drug":-0.0238,"Outcome":"inactive"}
{"gene knocked down":"AKT1 (GeneID 207)","reagent no.":1,"viability robust z-score, no drug":0.382,"Outcome":"inactive"}
{"gene knocked down":"CKM (GeneID 1158)","reagent no.":1,"viability robust z-score, no drug":0.736,"Outcome":"inactive"}
{"gene knocked down":"HSPB8 (GeneID 26353)","reagent no.":1,"viability robust z-score, no drug":-0.135,"Outcome":"inactive"}
{"gene knocked down":"SOX9 (GeneID 6662)","reagent no.":1,"viability robust z-score, no drug":0.678,"Outcome":"inactive"}
{"gene knocked down":"ILK (GeneID 3611)","reagent no.":1,"viability robust z-score, no drug":-0.0886,"Outcome":"inactive"}
{"gene knocked down":"ILK (GeneID 3611)","reagent no.":2,"viability robust z-score, no drug":0.736,"Outcome":"inactive"}
{"gene knocked down":"NRAS (GeneID 4893)","reagent no.":1,"viability robust z-score, no drug":0.736,"Outcome":"inactive"}
{"gene knocked down":"TGFBR1 (GeneID 7046)","reagent no.":1,"viability robust z-score, no drug":0.736,"Outcome":"inactive"}
{"gene knocked down":"EPHA2 (GeneID 1969)","reagent no.":1,"viability robust z-score, no drug":0.519,"Outcome":"inactive"}
{"gene knocked down":"MAPK13 (GeneID 5603)","reagent no.":1,"viability robust z-score, no drug":0.736,"Outcome":"inactive"}
{"gene knocked down":"GRK7 (GeneID 131890)","reagent no.":1,"viability robust z-score, no drug":0.284,"Outcome":"inactive"}
{"gene knocked down":"ITPK1 (GeneID 3705)","reagent no.":1,"viability robust z-score, no drug":-0.66,"Outcome":"inactive"}
{"gene knocked down":"EEF2K (GeneID 29904)","reagent no.":1,"viability robust z-score, no drug":0.736,"Outcome":"inactive"}
{"gene knocked down":"DAPK1 (GeneID 1612)","reagent no.":1,"viability robust z-score, no drug":-0.0162,"Outcome":"inactive"}
{"gene knocked down":"PSTK (GeneID 118672)","reagent no.":1,"viability robust z-score, no drug":0.736,"Outcome":"inactive"}
{"gene knocked down":"ULK3 (GeneID 25989)","reagent no.":1,"viability robust z-score, no drug":-0.634,"Outcome":"inactive"}
{"gene knocked down":"CSF1R (GeneID 1436)","reagent no.":1,"viability robust z-score, no drug":0.736,"Outcome":"inactive"}
{"gene knocked down":"CHEK1 (GeneID 1111)","reagent no.":1,"viability robust z-score, no drug":-1.27,"Outcome":"inactive"}
